Data as given in PubChem BioAssay AID504764 (Drosophila RNAi Screening Center, 2011).
In all, the deposit lists about 22,000 reagents; below is a random part of those that have a named target and a result. Over the whole deposit, 403 (1.9%) got an active call. 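Unnormalised raw counts per well; ratio z-scores behind the hit calls and whether each hit raises or lowers signal are not deposited.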 A number with no mark means an inactive call. Names joined by + are all predicted targets of the reagent. Not stated in the record: the amount of reagent.

- Test: 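Genome-wide screen for regulators of Notch-driven gene expression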 (primary screen)
- Cell system: Drosophila Kc167 cells
- Knock-down reagent: long dsRNA against Drosophila genes
- Duration: about 5 days (4 days dsRNA, then 24 h after transfection)
- Conditions: transfection of constitutively active membrane-tethered Notch lacking the extracellular domain, read 24 h later
- Detection: 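Light from a Notch-responsive E(spl)m3 luciferase reporter under active Notch, with control-promoter and no-Notch reporter wells to normalise; raw counts from paired wells a and b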
- Reading the numbers: induced reporter light, run 1, well a and induced reporter light, run 1, well b: higher = more light from the Notch target reporter with active Notch; control promoter light, run 1, well a and control promoter light, run 1, well b: higher = more light from the viral control promoter (cell number, transfection, viability); uninduced reporter light, run 1, well a: higher = more light from the Notch target reporter without active Notch
- Hit rule: 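Wells with low control signal or poorly matching duplicates excluded; duplicates averaged; per source plate, z beyond ±2 for induced/control log2 ratio or beyond ±1.8 for induced/uninduced marks a hit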
- Meaning of the calls: active = modifier hit (raised or lowered Notch signal); inactive = not a hit

no.	predicted target	amplicon	induced reporter light, run 1, well a	induced reporter light, run 1, well b	control promoter light, run 1, well a	control promoter light, run 1, well b	uninduced reporter light, run 1, well a
1	Fs (GeneID 2768836)	DRSC06258	74740 (active)	91520	1.82e5	2.64e5	9425
2	Fs (GeneID 2768836)	DRSC06259	59990	67745	76885	86230	8400
3	CG6652 (GeneID 39905)	DRSC10686	1.14e5	86230	69265	72615	8945
4	CG33255 (retired record) + hpRNA:CR32205	DRSC09610	2.19e5	2.19e5	2.45e5	2.45e5	18220
5	CG33255 (retired record) + hpRNA:CR32205	DRSC09611	2.56e5	2.03e5	3.05e5	2.66e5	20600
6	bol (GeneID 39049)	DRSC08964	1.96e5	1.94e5	2.10e5	1.80e5	12635
7	bol (GeneID 39049)	DRSC10444	2.04e5	2.59e5	2.99e5	2.44e5	11080
8	bol (GeneID 39049)	DRSC11329	1.39e5	1.45e5	2.21e5	1.80e5	12885
9	Schip1 (GeneID 34393)	DRSC02851	1.40e5	1.79e5	99445	1.35e5	18135
10	trbd (GeneID 41179)	DRSC16494	1.09e5	1.00e5	65250	62230	7955
11	betaTub85D (GeneID 41124)	DRSC16910	70280	81810	77950	59125	3420
12	CG7294 (GeneID 34470)	DRSC03041	71725	1.00e5	68850	1.00e5	14775
13	CG6067 (GeneID 31529)	DRSC18399	1.76e5	1.39e5	3.20e5	2.99e5	11015
14	klg (GeneID 42707)	DRSC13591	72930	76795	1.21e5	86390	9650
15	klg (GeneID 42707)	DRSC16978	1.10e5	1.12e5	1.53e5	1.57e5	9945
16	CG15431 (GeneID 33646)	DRSC00446	1.77e5	1.65e5	1.49e5	1.66e5	12020
17	CG13481 (GeneID 39579)	DRSC10023	2.12e5	1.86e5	2.93e5	2.54e5	9080
18	spg (GeneID 43404)	DRSC14373	1.22e5	1.14e5	1.84e5	1.44e5	10445
19	spg (GeneID 43404)	DRSC14881	1.21e5	1.09e5	1.58e5	1.56e5	12205

Next part; the last 3 above are carried over.
no.	predicted target	amplicon	induced reporter light, run 1, well a	induced reporter light, run 1, well b	control promoter light, run 1, well a	control promoter light, run 1, well b	uninduced reporter light, run 1, well a
17	CG13481 (GeneID 39579)	DRSC10023	2.12e5	1.86e5	2.93e5	2.54e5	9080
18	spg (GeneID 43404)	DRSC14373	1.22e5	1.14e5	1.84e5	1.44e5	10445
19	spg (GeneID 43404)	DRSC14881	1.21e5	1.09e5	1.58e5	1.56e5	12205
20	CG14435 (GeneID 31628)	DRSC17928	86025	92400	1.11e5	1.25e5	8725
21	CycG (GeneID 43724)	DRSC14324	1.47e5	1.10e5	1.86e5	1.73e5	10060
22	Polr3A (GeneID 32524)	DRSC19766	37220	40160	33500	35405	6692
23	Dsor1 (GeneID 31872)	DRSC18462	2.01e5	2.12e5	3.38e5	2.42e5	14428
24	CG6508 (GeneID 34493)	DRSC02963	1.36e5	1.30e5	74910	87420	18700
25	Or74a (GeneID 39929)	DRSC11245	1.34e5 (active)	1.27e5	2.33e5	2.03e5	5670
26	CG31729 (GeneID 34736)	DRSC02524	1.90e5	1.94e5	1.46e5	1.42e5	13890
27	CG31729 (GeneID 34736)	DRSC02946	1.49e5	1.57e5	1.80e5	1.78e5	13050
28	l(2)efl (GeneID 37744)	DRSC04698	1.43e5	1.66e5	1.44e5	1.46e5	12160
29	CG2685 (GeneID 31259)	DRSC18463	63215	55585	78320	93130	3050
30	CG3257 (GeneID 37862)	DRSC04351	1.67e5	1.35e5	1.23e5	1.82e5	12310
31	CG30075 (GeneID 246437)	DRSC05484	2.06e5	2.74e5	2.65e5	2.71e5	18830
32	Gem4b + Gem4c + Glos	DRSC18244	1.30e5	1.30e5	2.57e5	2.49e5	11515
33	CG6108 (retired record) (GeneID 34733)	DRSC02929	1.10e5	1.14e5	1.24e5	1.19e5	9680
34	IntS10 (GeneID 38444)	DRSC08173	1.87e5	1.63e5	2.62e5	2.73e5	12125
